Here are results for two molecules from article PMC2914225, “Fusion of GFP to the M.EcoKI DNA methyltransferase produces a new probe of Type I DNA restriction and modification enzymes” (Biochemical and Biophysical Research Communications, 2010).

No constants are given. Whether binding was seen depends on the method and setting. Some entries that bind do so weakly or less than the wild type. Where a sequence is shown, tags or fusion partners need not be part of it.

For assay [1], the target named is T1, GFP-MTase (M.EcoKI DNA methyltransferase, M2S1 form, with enhanced green fluorescent protein fused to the C-terminus of HsdS) (E. coli) (UniProt P08957+P05719).
T1 sequence 1: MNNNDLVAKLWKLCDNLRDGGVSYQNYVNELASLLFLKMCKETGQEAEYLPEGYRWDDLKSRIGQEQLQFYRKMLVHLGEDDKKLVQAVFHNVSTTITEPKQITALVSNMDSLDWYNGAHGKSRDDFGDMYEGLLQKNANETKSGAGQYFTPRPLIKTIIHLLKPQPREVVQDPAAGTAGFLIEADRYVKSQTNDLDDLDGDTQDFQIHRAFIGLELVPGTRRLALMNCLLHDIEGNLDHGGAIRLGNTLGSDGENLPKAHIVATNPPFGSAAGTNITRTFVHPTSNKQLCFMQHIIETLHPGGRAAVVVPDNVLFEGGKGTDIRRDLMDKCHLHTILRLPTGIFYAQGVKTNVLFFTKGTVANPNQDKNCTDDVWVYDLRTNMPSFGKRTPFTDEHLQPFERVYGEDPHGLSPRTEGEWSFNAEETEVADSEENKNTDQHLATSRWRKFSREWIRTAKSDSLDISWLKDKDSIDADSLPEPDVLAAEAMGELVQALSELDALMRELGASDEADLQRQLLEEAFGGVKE
T1 sequence 2: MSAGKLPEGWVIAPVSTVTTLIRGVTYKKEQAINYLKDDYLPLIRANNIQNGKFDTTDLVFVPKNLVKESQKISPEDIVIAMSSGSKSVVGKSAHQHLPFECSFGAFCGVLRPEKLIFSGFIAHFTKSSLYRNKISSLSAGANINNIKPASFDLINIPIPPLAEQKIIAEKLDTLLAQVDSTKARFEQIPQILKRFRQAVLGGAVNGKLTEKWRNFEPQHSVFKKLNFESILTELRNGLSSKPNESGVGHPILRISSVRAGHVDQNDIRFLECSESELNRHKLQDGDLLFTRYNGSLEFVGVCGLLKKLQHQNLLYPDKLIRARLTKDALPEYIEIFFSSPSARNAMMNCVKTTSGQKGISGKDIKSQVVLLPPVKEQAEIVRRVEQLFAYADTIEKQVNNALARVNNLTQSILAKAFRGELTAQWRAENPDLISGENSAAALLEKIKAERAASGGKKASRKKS
Description: FRET or BRET; time-resolved fluorescence decay of the GFP donor (time correlated single photon counting), 1:1 mixtures of labelled ocr with GFP-MTase, excitation at 405 nm, emission at 510 nm, magic angle; both purified.

The target of assay [2] is T1, GFP-MTase (M.EcoKI DNA methyltransferase, M2S1 form, with enhanced green fluorescent protein fused to the C-terminus of HsdS) (E. coli). Description: FRET or BRET; steady state fluorescence emission scans, 500 nM GFP-MTase (donor) with 500 nM Dylight549-labelled mutant ocr (acceptor), excitation at 395 nm; 20 mM Tris-HCl pH 8.0, 6 mM MgCl2, 7 mM 2-mercaptoethanol; both purified. For orientation: In BRET a luciferase serves as donor, and the signal depends on an acceptor being close.

The target in assay [3] is T2, HsdS DNA sequence-specificity subunit of M.EcoKI with enhanced green fluorescent protein fused to its C-terminus (E. coli) (UniProt P05719).
T2 sequence: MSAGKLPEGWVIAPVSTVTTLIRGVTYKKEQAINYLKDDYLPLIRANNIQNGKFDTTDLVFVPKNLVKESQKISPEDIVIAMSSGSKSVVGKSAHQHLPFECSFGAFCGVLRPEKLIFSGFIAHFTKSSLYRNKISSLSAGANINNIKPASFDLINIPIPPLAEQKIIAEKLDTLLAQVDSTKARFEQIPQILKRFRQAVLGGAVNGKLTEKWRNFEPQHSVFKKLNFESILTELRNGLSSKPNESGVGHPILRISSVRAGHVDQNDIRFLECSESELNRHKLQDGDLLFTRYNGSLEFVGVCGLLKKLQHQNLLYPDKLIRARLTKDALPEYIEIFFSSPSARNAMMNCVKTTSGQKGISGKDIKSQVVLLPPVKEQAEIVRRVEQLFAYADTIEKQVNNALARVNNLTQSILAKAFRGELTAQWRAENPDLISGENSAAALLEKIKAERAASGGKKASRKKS
In words: co-purification; HsdM and HsdS-EGFP co-expressed in E. coli BL21(DE3) and purified together by His-tag affinity, gel filtration and anion exchange chromatography. Background: SEC sorts molecules by how far they enter the pores of the column.

B1: Dylight549-labelled ocr E117C mutant protein (natural protein, phage T7, UniProt P03775 1-117, looked up)
chain: MAMSNMTYNNVFDHAYEMLKENIRYDDIRDTDDLHDAIHMAADNAVPHYYADIFSVMASEGIDLEFEDSGLMPDTKDVIRILQARIYEQLTIDLWEDAEDLLNEYLEEVEEYEEDEC
modifications: Dylight549 maleimide on the introduced cysteine at 117 (labelling level 86.3%)
notes: gene 0.3 protein, ocr, from phage T7; one cysteine and so one acceptor label in each subunit; also called E117C ocr; E117E (as printed once); source: site directed mutagenesis and protein purification as described previously [17]
Take B1: the binding entry in assay [1] and in assay [2] was “binds” in each case.

B2: HsdM modification subunit of M.EcoKI (enzyme, UniProt P08957 1-529)
chain: MNNNDLVAKLWKLCDNLRDGGVSYQNYVNELASLLFLKMCKETGQEAEYLPEGYRWDDLKSRIGQEQLQFYRKMLVHLGEDDKKLVQAVFHNVSTTITEPKQITALVSNMDSLDWYNGAHGKSRDDFGDMYEGLLQKNANETKSGAGQYFTPRPLIKTIIHLLKPQPREVVQDPAAGTAGFLIEADRYVKSQTNDLDDLDGDTQDFQIHRAFIGLELVPGTRRLALMNCLLHDIEGNLDHGGAIRLGNTLGSDGENLPKAHIVATNPPFGSAAGTNITRTFVHPTSNKQLCFMQHIIETLHPGGRAAVVVPDNVLFEGGKGTDIRRDLMDKCHLHTILRLPTGIFYAQGVKTNVLFFTKGTVANPNQDKNCTDDVWVYDLRTNMPSFGKRTPFTDEHLQPFERVYGEDPHGLSPRTEGEWSFNAEETEVADSEENKNTDQHLATSRWRKFSREWIRTAKSDSLDISWLKDKDSIDADSLPEPDVLAAEAMGELVQALSELDALMRELGASDEADLQRQLLEEAFGGVKE
For the molecule B2, the binding result in assay [3] was “binds”.
